Assay results as given in publication PMC4957769.

Key:
[1] = target: T1, MBP-OsHAK1-C, C-terminal domain of OsHAK1 (683-792 aa) (rice (Oryza sativa)) (UniProt Q6VVA6); assay: pull-down; 100 ug MBP-tagged bait on amylose resin, 15 ug GST-RUPO-C or GST as prey, 20 mM Tris-HCl, 150 mM NaCl, 1 mM DTT, pH 7.5, 4 C, 3 h; blots with anti-GST and anti-MBP; both purified
T1 sequence: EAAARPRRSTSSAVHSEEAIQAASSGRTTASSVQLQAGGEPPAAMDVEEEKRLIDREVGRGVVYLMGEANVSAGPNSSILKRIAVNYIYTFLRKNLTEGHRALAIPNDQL

[2] = target: BD453-788*, RUPO 453-788 aa with K543R (rice (Oryza sativa)); assay: two-hybrid; direct tests of BD-RUPO constructs against C-tails of OsHAKs in yeast; growth on quadruple dropout medium
[3] = target: BD453-708*, RUPO 453-708 aa with K543R (rice (Oryza sativa)); assay: as above
[4] = target: BD-RUPO-C, intracellular domain of RUPO without juxtamembrane region (515-845 aa) (rice (Oryza sativa)); assay: as above
[5] = target: BD453-820, truncated intracellular domain of RUPO with JM (453-820 aa) (rice (Oryza sativa)); assay: as above
[6] = target: BD453-845*, intracellular domain of RUPO (453-845 aa) with K543R (rice (Oryza sativa)); assay: as above
[7] = target: BD453-820*, RUPO 453-820 aa with K543R (rice (Oryza sativa)); assay: as above
[8] = target: BD453-845, complete intracellular domain of RUPO (453-845 aa) (rice (Oryza sativa)); assay: as above
[9] = target: BD-RUPO-C, intracellular domain of RUPO without juxtamembrane region (515-845 aa) (rice (Oryza sativa)); assay: two-hybrid; library screen: bait BD-RUPO-C in Y2HGold mated with a prey cDNA library of germinated pollen in Y187; selection on SD/-His/-Leu/-Trp, then SD/-Ade/-His/-Leu/-Trp with x-alpha-Gal

binding [1]: binds
Molecule: GST-RUPO-C (515-845 aa of RUPO) (rice (Oryza sativa)) (domain or fragment)

binding [2]: no binding | binding [3]: no binding | binding [4]: binds | binding [5]: binds | binding [6]: no binding | binding [7]: no binding | binding [8]: binds | binding [9]: binds
B1: OsHAK1-C, 110-aa C-terminus of high-affinity K+ transporter OsHAK1 (two-hybrid prey) (domain or fragment, UniProt Q6VVA6 683-792)
chain: T1 sequence

These are yes or no findings as the source states them, for the method shown. For part of these data: A result given as binding can be weak or reduced; the word gives no strength. For part of these data: Sequences can lack the tags named with a protein. Each block holds one molecule with its values, some of them ahead of it.
